Reference: PubChem BioAssay AID493014 (National Center for Advancing Translational Sciences (NCATS), 2011)
Several values for one entry are separate records, joined by “and”; a condition that tells them apart may be missing. Identical values can stand only once. The list shows a part of the results. The main result of the screen is listed elsewhere. These columns were measured beside it and carry no call. The list favours compounds with an active or inconclusive main result. Words in brackets tell the shape of the fitted curve; partial curves, single points and poor fits give uncertain potencies.

Assay: qHTS Assay to Find Inhibitors of Chronic Active B-Cell Receptor Signaling
Conditions: ABC-DLBCL IkBa-CBG/CBR reporter, luminescence ratio (green luciferase fused to IkBa over red control in TMD8 lymphoma cells), 4 h
Method in brief: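 Concentration-response series (up to 46 uM) were applied to TMD8 dual-reporter cells for 4 h at 37C with doxycycline. Green/red ratio, after filter-overlap correction, defined %Activity; red signal alone was normalised to basal cells and zero luminescence.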

[1] = measured here: CBR red luminescence, cell number
[2] = measured here: IkBa-CBG green luminescence

Row | SMILES | AC50 [1] | AC50 [2]
1 | Cc1csc(NC(=O)c2cc3ccccc3o2)n1 | 6.51 µM [falling, partial curve] | 
2 | O=C(Nc1nc(-c2ccccn2)cs1)Nc1ccc(F)cc1F | 11.2 µM [falling, partial curve, poor fit] | 
3 | CN(C)c1ccc(C(=O)NN2C(=O)c3ccccc3C2=O)cc1 | 22.4 µM [falling, single point] | 
4 | Cc1ncc(CN2CCC(N3CCC(C(=O)N4CCCC4)CC3)CC2)s1 | 3.55 µM [rising, partial curve] | 
5 | O=C(Nc1cc(Cl)ccn1)C1CCN(S(=O)(=O)c2cccs2)CC1 | 4.11 µM [falling, full curve, poor fit] | 
6 | CCC(COC(=O)c1ccccc1)Oc1cc(NCc2ccccc2)c2ncn(C(C)C)c2c1 (stereo not given) | 29.1 µM [falling, single point] | 
7 | CC1CC(C)CN(c2ccc(S(=O)(=O)N3CCOCC3)cc2)C1 (stereo not given) | 2.82 µM [rising, full curve] | 
8 | COc1cc(/C=C(\C#N)C(=O)Nc2ccc3c(c2)OCCO3)ccc1O | 35.5 µM [falling, single point] | 
9 | CCN1CCN(c2ncc(C(=O)Nc3c(F)cc(F)cc3Br)c3ccccc23)CC1 | 16.4 µM [falling, single point] | 
10 | Cc1ccc(/C=C2\SC(=S)N(CCC(=O)N3CCCCC3)C2=O)cc1 | 11.2 µM [falling, single point] | 
11 | COC(=O)c1ccc(NC(=O)COc2ccc(S(=O)(=O)N3CCCCC3)cc2)cc1 | 6.51 µM [falling, single point] | 
12 | Cc1ccc(S(=O)(=O)c2cn(C)c3cc(N4CCN(C)CC4)c(F)cc3c2=O)cc1 | 5.62 µM [falling, single point] | 
13 | CCCCn1c(=O)[nH]c(=O)c2c1nc(-c1ccccc1F)n2Cc1ccccc1 | 35.5 µM [falling, single point] | 
14 | COc1ccc(S(=O)(=O)N(CC(=O)NCc2ccccc2OC)c2ccc(C)cc2)cc1 | 14.1 µM [falling, partial curve, poor fit] | 
15 | Cc1ccc(S(=O)(=O)N2CCCC2CNC(=O)c2ccc(F)c(F)c2)cc1 (stereo not given) | 6.51 µM [falling, full curve] | 
16 | CC(=O)c1c(C)[nH]c(C(=O)OCc2cccc(C)c2)c1C | 1.12 µM [rising, full curve, poor fit] | 
17 | COc1ccc(-c2cc(-c3ccccc3)nc(SCC(=O)Nc3ncc(C)s3)c2C#N)cc1 | 2.31 µM [rising, full curve, poor fit] | 
18 | Cc1ccc(Cn2nnc3c(=O)[nH]c(C4CCN(S(=O)(=O)/C=C/c5ccccc5)CC4)nc32)cc1 | 7.08 µM [falling, partial curve, poor fit] | 
19 | O=C(Nc1cccc(Cl)c1)Nc1cccc(C(=O)O)c1 | 5.01 µM [falling, full curve] | 
20 | CC(=O)NCCc1nc2cc(NC(=O)c3ccccc3C)ccc2n1C | 8.91 µM [falling, partial curve] | 
21 | CC(=O)Nc1ccc(C(=O)CSc2nc3ccc(C)cc3[nH]2)cc1 | 29.1 µM [rising, single point] | 

Row | SMILES | AC50 [1] | AC50 [2]
22 | O=C(CSC1=Nc2ccccc2C2=NC(CC(=O)NCc3ccco3)C(=O)N12)NCc1ccco1 (stereo not given) | 29.1 µM [rising, single point] | 
23 | COc1cc(NC(=O)CN(C)Cc2ccc(OC(F)F)cc2)c(C)cc1[N+](=O)[O-] | 0.00731 µM [rising, full curve, poor fit] | 
24 | Cc1sc2nc(SCC(=O)N(C)c3ccccc3)n(C)c(=O)c2c1C | 3.55 µM [falling, partial curve, poor fit] | 
25 | COc1ccc(/C=C(\NC(=O)c2cccs2)C(=O)Nc2ccccc2C)cc1OC | 29.1 µM [rising, single point] | 
26 | Cc1nc(NC(=O)c2ccc(Br)o2)sc1C | 1.03 µM [falling, full curve, poor fit] | 
27 | CC1=C(C(=O)Nc2ccc(CC(=O)NCc3ccc(OC(C)C)cc3)cc2)SCCO1 | 8.91 µM [rising, partial curve] | 1.58 µM [falling, full curve]
28 | COc1ccc2cc3c(N)nn(C(=O)Cc4c[nH]c5ccccc45)c3nc2c1 | 7.08 µM [falling, full curve] | 12.6 µM [rising, single point]
29 | CCCc1nnc(N2C(=O)c3cccc4cccc(c34)C2=O)s1 | 20.6 µM [rising, single point] | 
30 | CSc1nsc(NC(=O)Cc2ccccc2)n1 | 8.2 µM [falling, partial curve] | 
31 | Cc1cccnc1NC(=O)/C=C/c1ccc2c(c1)OCO2 | 1.84 µM [falling, full curve] | 
32 | Cc1onc(-c2ccccc2)c1C(=O)N/N=C/c1cc2c(cc1Br)OCO2 | 29.1 µM [falling, single point] | 
33 | O=C(COC(=O)c1cc(Br)ccc1O)Nc1ccc2c(c1)OCO2 | 5.8 µM [falling, partial curve] | 
34 | Cc1ccc(Cl)cc1N1CCN(C(=O)CSc2nnc3n2C(C)(C)Cc2ccccc2-3)CC1 | 18.4 µM [falling, single point] | 
35 | O=C(COC(=O)c1nc(Cl)ccc1Cl)c1ccc[nH]1 | 29.1 µM [rising, partial curve, poor fit] | 
36 | C[C@]12CCC(=O)C=C1CC[C@@H]1[C@@H]2[C@@H](O)C[C@@]2(C)[C@H]1CC[C@]2(O)C(=O)COC(=O)CCC(=O)O | 326 nM [rising, full curve, poor fit] and 231 nM [rising, full curve, poor fit] | 
37 | O=C(COC(=O)c1cccc([N+](=O)[O-])c1)Nc1ccc(Cl)cn1 | 16.4 µM [falling, partial curve, poor fit] | 
38 | COc1ccc(Br)cc1/C=N/NC(=O)CN1CCN(Cc2ccccc2)CC1 | 25.1 µM [rising, single point] | 
39 | CCn1cc(C(=O)NCc2ccccn2)c(=O)c2cc(F)c(N3CCN(C)CC3)cc21 | 6.51 µM [falling, single point] | 
40 | Cc1cc(=O)n2[nH]c(N)c(N=Nc3ccccc3)c2n1 | 10.3 µM [falling, partial curve, poor fit] | 
41 | CCOC(=O)c1cnn(-c2cc(C)c3ccccc3n2)c1N | 1.26 µM [rising, full curve, poor fit] | 
42 | CC(C(=O)N1CCN(C(=O)c2ccco2)CC1)N1C(=O)NC2(CCCCC2C)C1=O (stereo not given) | 29.1 µM [rising, single point] | 

Row | SMILES | AC50 [1] | AC50 [2]
43 | Nc1ccc(S(=O)(=O)Nc2nc(-c3ccccc3)cc(-c3ccccc3)n2)cc1 | 14.1 µM [rising, partial curve, poor fit] | 
44 | CCn1c(SCC(=O)NCc2ccco2)nnc1-c1cccs1 | 0.731 µM [falling, partial curve, poor fit] | 
45 | O=C(Nc1nnc(C2CC2)s1)c1ccncc1 | 35.5 µM [falling, single point] | 
46 | Cc1nn(C(=O)c2cc3sccc3[nH]2)c(C)c1C | 0.58 µM [rising, full curve, poor fit] | 
47 | COC(=O)C1=C(C)N(Cc2ccccc2)C(=NCc2cc(OC)c(OC)c(OC)c2)N[C@H]1c1ccc(Br)cc1 | 18.4 µM [falling, partial curve] | 
48 | COc1ccccc1NC(=O)c1ccc(-n2cccn2)nc1 | 25.1 µM [falling, single point] | 
49 | CCCC(=O)Nc1ccc(C(=O)Nc2ccc([N+](=O)[O-])cc2OC)cc1 | 6.31 µM [rising, partial curve, poor fit] | 
50 | Cc1ccc(-c2c[n+](Cc3ccc(Cl)cc3)c3n2CCC3)cc1 | 20 µM [falling, single point] | 
51 | O=C(Nc1nccs1)NC(C(F)(F)F)C(F)(F)F | 4.11 µM [rising, single point] | 
52 | CCCn1nc(C(=O)OCC(=O)c2c(N)n(C)c(=O)n(C)c2=O)c2ccccc2c1=O | 2.82 µM [falling, partial curve, poor fit] | 
53 | O=C(Nc1ccc2ccccc2c1)c1onc2c1CCCC2 | 5.01 µM [falling, partial curve] | 
54 | Cc1nn2c(NCCCN(C)C)c3c(nc2c1-c1ccccc1)CCCC3 | 7.08 µM [falling, partial curve, poor fit] | 
55 | O=C(CN1C(=O)c2cccnc2Oc2ccc(Cl)cc21)Nc1ccc(F)cc1 | 10 µM [falling, partial curve] | 
56 | CN(C)c1ccc(NC(=O)c2cccc(N3C(=O)C4C5C=CC(C5)C4C3=O)c2)cc1 (stereo not given) | 2.82 µM [falling, full curve] | 
57 | COCCCn1c(SCC(=O)NC(C)(C)C)nnc1-c1cccs1 | 15.8 µM [rising, single point] | 
58 | CCN1C(=O)S/C(=C/c2ccc(Sc3nc4ccccc4[nH]3)o2)C1=O | 23.1 µM [falling, single point] | 
59 | Cc1cccc(Nc2ncnc3nc[nH]c23)c1C | 9.2 µM [falling, partial curve] | 
60 | O=C(Nc1sc2c(c1C(=O)O)CCCC2)c1ccccc1Cl | 20 µM [falling, partial curve] | 
61 | O=C(NCc1ccc2c(c1)OCO2)c1ccc(S(=O)(=O)N2CCCCC2)cc1 | 29.1 µM [rising, single point] | 
62 | C/C(N)=C(/C#N)C(=O)CSc1nnc(Nc2ccccc2)s1 | 35.5 µM [falling, partial curve, poor fit] | 
63 | O=C(NC1CCN(C(=O)N2c3ccccc3Sc3ccccc32)CC1)c1ccccc1F | 7.08 µM [falling, partial curve] | 
